These are yes or no findings as the source states them, for the method shown. Where a sequence is shown, tags or fusion partners need not be part of it.

For the assay, the target named is MBP-SUFU-FL (human) (UniProt Q9UMX1). As to the kind of experiment: SEC; HiPrep 26/60 Sephacryl S-200 HR; 10 mM Tris–HCl pH 7.4, 50 mM NaCl, 1 mM DTT; both purified. On the technique in general: Size exclusion chromatography separates by hydrodynamic size, large species first.

B1: MBP-SUFU-FL (domain or fragment, UniProt Q9UMX1 32-483)
chain: PGLHAIYGECRRLYPDQPNPLQVTAIVKYWLGGPDPLDYVSMYRNVGSPSANIPEHWHYISFGLSDLYGDNRVHEFTGTDGPSGFGFELTFRLKRETGESAPPTWPAELMQGLARYVFQSENTFCSGDHVSWHSPLDNSESRIQHMLLTEDPQMQPVQTPFGVVTFLQIVGVCTEELHSAQQWNGQGILELLRTVPIAGGPWLITDMRRGETIFEIDPHLQERVDKGIETDGSNLSGVSAKCAWDDLSRPPEDDEDSRSICIGTQPRRLSGKDTEQIRETLRRGLEINSKPVLPPINPQRQNGLAHDRAPSRKDSLESDSSTAIIPHELIRTRQLESVHLKFNQESGALIPLCLRGRLLHGRHFTYKSITGDMAITFVSTGVEGAFATEEHPYAAHGPWLQILLTEEFVEKMLEDLEDLTSPEEFKLPKEYSWPEKKLKVSILPDVVFDSPL
Turning to B1, the binding result is “no binding”.

Source of the values: publication PMC3852661, “Structural basis of SUFU–GLI interaction in human Hedgehog signalling regulation” (Acta Crystallographica Section D: Biological Crystallography, 2013).
